Results deposited as PubChem BioAssay AID1259424 (University of Nebraska Medical Center, 2018)
Assay: 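Find knockdowns that reproduce the expression shifts seen after KSR1 loss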 (primary screen). System: human HCT116 colon cancer cells. Reagent: siRNA pool against human genes, 50 nM. Measured: 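Six signature mRNAs by branched-DNA multiplex assay, scaled to two housekeeping genes and non-targeting median, log2; matched to mean KSR1 knockdown profile by Pearson correlation and euclidean distance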. Scale: mean correlation with KSR1 profile: higher = expression change more like KSR1 knockdown; mean distance from KSR1 profile: higher = expression change less like KSR1 knockdown.
In all, the deposit lists about 14,000 reagents; this is a part drawn at random. 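Higher correlation or smaller distance means closer resemblance to KSR1 loss; control wells, including KSR1 knockdowns, recur on many plates.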 The numbers tell different reagents against one gene apart. Further read-outs or replicates are left out here. The record does not give: the time to read-out.

With knock-down of ELF2 (GeneID 1998), the screen gave mean correlation with KSR1 profile 0.623; mean distance from KSR1 profile 1.8. Against ARNT2 (GeneID 9915), the values are mean correlation with KSR1 profile -0.0779; mean distance from KSR1 profile 1.85. For PRAC1 (GeneID 84366), the entry reads mean correlation with KSR1 profile 0.771; mean distance from KSR1 profile 2.19. After knock-down of KTN1 (GeneID 3895), the record shows mean correlation with KSR1 profile 0.241; mean distance from KSR1 profile 1.14. Silencing of CLDN12 (GeneID 9069) gave: mean correlation with KSR1 profile -0.77; mean distance from KSR1 profile 2.31. TRIM33 (GeneID 51592) showed mean correlation with KSR1 profile -0.0855; mean distance from KSR1 profile 1.73.

RND2 (GeneID 8153) showed mean correlation with KSR1 profile -0.284; mean distance from KSR1 profile 2.71. For PIN1 (GeneID 5300), the entry reads mean correlation with KSR1 profile 0.139; mean distance from KSR1 profile 2.55. KIFBP (GeneID 26128) showed mean correlation with KSR1 profile 0.114; mean distance from KSR1 profile 1.76. For PDP2 (GeneID 57546), the values are mean correlation with KSR1 profile -0.463; mean distance from KSR1 profile 2.39. SPATA7 (GeneID 55812) scored mean correlation with KSR1 profile 0.38; mean distance from KSR1 profile 2.11. Silencing of BPIFB2 (GeneID 80341) gave: mean correlation with KSR1 profile 0.631; mean distance from KSR1 profile 2.24.

Depletion of RYK (GeneID 6259) gave: mean correlation with KSR1 profile 0.376; mean distance from KSR1 profile 1.61. After knock-down of ZNF646 (GeneID 9726), the record shows mean correlation with KSR1 profile -0.019; mean distance from KSR1 profile 2.12. Knock-down of HRH1 (GeneID 3269) gave: mean correlation with KSR1 profile 0.74; mean distance from KSR1 profile 1.54. Silencing of PLBD1 (GeneID 79887) resulted in: mean correlation with KSR1 profile 0.0154; mean distance from KSR1 profile 2.45. Silencing of FNDC8 (GeneID 54752) resulted in: mean correlation with KSR1 profile -0.522; mean distance from KSR1 profile 3.15. Knock-down of PAWR (GeneID 5074) gave: mean correlation with KSR1 profile 0.545; mean distance from KSR1 profile 1.42.

For WDR43 (GeneID 23160) the deposit lists mean correlation with KSR1 profile -0.621; mean distance from KSR1 profile 5.13. Depletion of RGSL1 (GeneID 353299) came out at: mean correlation with KSR1 profile 0.578; mean distance from KSR1 profile 1.61. Depletion of BMP1 (GeneID 649) resulted in: mean correlation with KSR1 profile -0.933; mean distance from KSR1 profile 1.88. For VCL (GeneID 7414), the values are mean correlation with KSR1 profile 0.184; mean distance from KSR1 profile 1.4. Silencing of FCAMR (GeneID 83953) gave: mean correlation with KSR1 profile 0.779; mean distance from KSR1 profile 2.04. IL36R (GeneID 8808) scored mean correlation with KSR1 profile -0.0366; mean distance from KSR1 profile 1.27.

Depletion of FOXG1 (GeneID 2290) #1 came out at: mean correlation with KSR1 profile 0.182; mean distance from KSR1 profile 3. Depletion of FOXG1 (GeneID 2290) #2 came out at: mean correlation with KSR1 profile -0.17; mean distance from KSR1 profile 2.71. Depletion of CNTN6 (GeneID 27255) came out at: mean correlation with KSR1 profile -0.144; mean distance from KSR1 profile 2.36. Against SET (GeneID 6418), the values are mean correlation with KSR1 profile 0.241; mean distance from KSR1 profile 4.46.
